Experimental data published in patent US6004928A, “Method of treating hyperlipidemia” (Biomeasure, Incorporated, priority 1998, dated 1999).
At least one structure is not confirmed: it was looked up by name or label, or the drawing left a doubt.

Amino acid sequences for entries named in this document (tags omitted). A change or cut given only in a name is not applied to a line headed by its entry.
UniProt P30872: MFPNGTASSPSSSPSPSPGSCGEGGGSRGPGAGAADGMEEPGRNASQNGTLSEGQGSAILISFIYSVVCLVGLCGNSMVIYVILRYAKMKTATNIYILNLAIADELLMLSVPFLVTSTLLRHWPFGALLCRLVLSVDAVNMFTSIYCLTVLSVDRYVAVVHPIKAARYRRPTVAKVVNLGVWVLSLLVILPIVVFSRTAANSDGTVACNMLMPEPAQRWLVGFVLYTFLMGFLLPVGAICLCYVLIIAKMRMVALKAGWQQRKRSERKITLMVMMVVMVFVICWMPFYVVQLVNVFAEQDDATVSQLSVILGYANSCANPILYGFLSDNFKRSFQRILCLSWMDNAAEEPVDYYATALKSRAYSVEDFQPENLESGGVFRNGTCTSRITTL

Biological target: T1, hSSTR-1 (Homo sapiens, UniProt P30872)
T1 construct: expressed in transfected cells; crude membranes
Experiment: Somatostatin receptor binding assay, [125I-Tyr11]somatostatin-14, transfected CHO-K1 membranes
Conditions: 0.05 nM [125I-Tyr11]somatostatin-14, 30 min at 30° C.

C[C@@H](O)[C@@H]1NC(=O)[C@H](CCCCN)NC(=O)[C@@H](Cc2c[nH]c3ccccc23)NC(=O)[C@H](Cc2ccc(O)c(I)c2)NC(=O)[C@H](Cc2ccccc2)NC(=O)[C@@H](N)CSSC[C@@H](C(N)=O)NC(=O)[C@H](Cc2ccccc2)NC1=O [BIM-23313, H-Cys-Phe-Tyr(I)-D-Trp-Lys-Thr-Phe-Cys-NH2]
Ki: 151 nM
